{"sequences": {"note": "Chains of the proteins cited; added tags and fusions are not shown. Lines headed by an entry give the natural chain unless they say otherwise; changes in a name come on top.", "UniProt P0ABV2": "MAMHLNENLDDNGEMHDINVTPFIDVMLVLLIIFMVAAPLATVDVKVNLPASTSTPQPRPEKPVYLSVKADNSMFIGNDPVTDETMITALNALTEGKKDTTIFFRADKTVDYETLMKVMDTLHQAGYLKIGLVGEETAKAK"}, "source": "paper PMC10907165", "about": "“Discovery and structural characterization of the D-box, a conserved TonB motif that couples an inner-membrane motor to outer-membrane transport” (The Journal of Biological Chemistry, 2024)", "target": "ExbD L132Q mutant (periplasmic domain) (E. coli) (UniProt P0ABV2)", "experiment": "condition: 1 mM peptide injected into 100 uM ExbD protein; ITC; D-box peptide (1 mM) injected into 100 uM ExbD protein at 288 K; 10 mM MES pH 5.3, 60 mM NaCl; two-state binding model; both purified", "note": "Results are given in words; binding and its absence hold for the method and conditions named.", "data": [{"binder": "QPISVTMVTPAD (TonB, E. coli, residues 43-54, holds the D-box motif; The description of the crystal structure numbers the peptide Gln-55 to Thr-63, that is 12 higher than the TonB numbers; also called TonB D-box peptide; source: synthetic peptide (VWR Scientific))", "note": "[D-box peptide (residues 43 to 54 of E. coli TonB)]", "values": [{"measurement": "binding", "value": "no binding"}]}]}
